# From patent publication US5756684
# By UniProt entry, the sequences of proteins in these tests, tags left out. Residues count along the entry.
# UniProt Q00577, 2-322: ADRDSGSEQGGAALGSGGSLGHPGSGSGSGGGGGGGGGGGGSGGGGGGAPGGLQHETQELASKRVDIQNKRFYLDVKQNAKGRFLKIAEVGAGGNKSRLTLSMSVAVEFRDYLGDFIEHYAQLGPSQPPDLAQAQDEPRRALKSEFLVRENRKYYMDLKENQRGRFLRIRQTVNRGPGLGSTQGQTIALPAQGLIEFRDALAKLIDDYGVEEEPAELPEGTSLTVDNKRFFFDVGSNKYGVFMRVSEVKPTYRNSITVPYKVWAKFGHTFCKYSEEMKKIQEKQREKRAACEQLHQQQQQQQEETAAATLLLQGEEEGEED
# Where cells or extracts were used, other partners may take part. For some of these results: A negative result means that nothing was seen under these conditions. For some of these results: The comparison behind a weaker result is the experiment's own reference, which may not be listed here.
# What was measured:
# [1] = molecular target: Pur (PUR factor, HeLa nuclear extract) (Homo sapiens) (UniProt Q00577); assay: EMSA; settings: protein in an extract, single-stranded DNA
# [2] = molecular target: Pur (PUR factor, HeLa nuclear extract) (Homo sapiens) (UniProt Q00577); assay: competition with a labelled probe; settings: protein in an extract, single-stranded DNA
sequence,measurement,setting,value
"GGAGGTGGTGGAGGGAGAGAAAAG [MF0677 (c-myc PUR element, purine strand)]",binding result,"[1]; HeLa nuclear extract, 45 mM KCl, pH 7.9, 30 C, also UV cross-linked (FIG. 4), G contacts by methylation interference (FIG. 5), label: 5'-32P",binds
ATCCCTTCTCCCTCTCCCTCATCA [DF3506 (dhfr C-T)],binding result,[2]; no competition at 100x excess,no binding
TACTGAATTCACTTAACACT [MF0562],binding result,[2]; no competition at 100x excess,no binding
GGAGATAGTGGAGGGAAAGAAAAG [MA0677 (Mut. II)],binding result,[1],binds more weakly
TGATGAGGGAGAGGGAGAAGGGAT [DR3529 (dhfr G-A)],binding result,[1],binds
GGAGATAGTAGAGGGAGAGAAAAG [MB0677 (Mut. III)],binding result,"[1]; binds weakly as probe, least able to compete",binds more weakly
TCTCAAGCTTGGTCCCTCAC [MR0740],binding result,[2]; no inhibition up to 300-fold,no binding
